According to patent US20110014246A1 (ACTAVIS GROUP PTC EHF, priority 2008, published 2011):
Where a name gives a salt, the structure may show the parent alone.

What was measured:
[1] = as disclosed in U.S. Pat. No. 6,268,533; cited from earlier work
[2] = Miglyol dispersant
Source text: As used herein, “Particle Size Distribution (P.S.D)” means the cumulative volume size distribution of equivalent spherical diameters as determined by laser diffraction in Malvern Master Sizer 2000 equipment or its equivalent.

Structure (SMILES) | hygroscopicity [1] | Particle size distribution d(0.1) [2] | Particle size distribution d(0.5) [2] | Particle size distribution d(0.9) [2]
COc1ccc(C[C@@H](C)NC[C@H](O)c2ccc(O)c(NC=O)c2)cc1 [L-(+)-tartrate salt of R,R-formoterol] | non-hygroscopic | – | – | –
COc1ccc(C[C@@H](C)NC[C@H](O)c2ccc(O)c(NC=O)c2)cc1 [amorphous arformoterol L-(+)-tartrate, N-[2-hydroxy-5-[(1R)-1-hydroxy-2-[[(1R)-2-(4-methoxyphenyl)-1-methylethyl]amino]ethyl]phenyl]formamide] | – | 9.78 microns | 31.42 microns | 67.44 microns
